Measurements as given in paper PMC8807507.
No constants are given. Whether binding was seen depends on the method and setting. In cells and extracts the contact can be indirect. Some entries that bind do so weakly or less than the wild type.

Sequences of proteins named here, by UniProt entry; tags and fusion partners are left off.
UniProt Q4VSI4: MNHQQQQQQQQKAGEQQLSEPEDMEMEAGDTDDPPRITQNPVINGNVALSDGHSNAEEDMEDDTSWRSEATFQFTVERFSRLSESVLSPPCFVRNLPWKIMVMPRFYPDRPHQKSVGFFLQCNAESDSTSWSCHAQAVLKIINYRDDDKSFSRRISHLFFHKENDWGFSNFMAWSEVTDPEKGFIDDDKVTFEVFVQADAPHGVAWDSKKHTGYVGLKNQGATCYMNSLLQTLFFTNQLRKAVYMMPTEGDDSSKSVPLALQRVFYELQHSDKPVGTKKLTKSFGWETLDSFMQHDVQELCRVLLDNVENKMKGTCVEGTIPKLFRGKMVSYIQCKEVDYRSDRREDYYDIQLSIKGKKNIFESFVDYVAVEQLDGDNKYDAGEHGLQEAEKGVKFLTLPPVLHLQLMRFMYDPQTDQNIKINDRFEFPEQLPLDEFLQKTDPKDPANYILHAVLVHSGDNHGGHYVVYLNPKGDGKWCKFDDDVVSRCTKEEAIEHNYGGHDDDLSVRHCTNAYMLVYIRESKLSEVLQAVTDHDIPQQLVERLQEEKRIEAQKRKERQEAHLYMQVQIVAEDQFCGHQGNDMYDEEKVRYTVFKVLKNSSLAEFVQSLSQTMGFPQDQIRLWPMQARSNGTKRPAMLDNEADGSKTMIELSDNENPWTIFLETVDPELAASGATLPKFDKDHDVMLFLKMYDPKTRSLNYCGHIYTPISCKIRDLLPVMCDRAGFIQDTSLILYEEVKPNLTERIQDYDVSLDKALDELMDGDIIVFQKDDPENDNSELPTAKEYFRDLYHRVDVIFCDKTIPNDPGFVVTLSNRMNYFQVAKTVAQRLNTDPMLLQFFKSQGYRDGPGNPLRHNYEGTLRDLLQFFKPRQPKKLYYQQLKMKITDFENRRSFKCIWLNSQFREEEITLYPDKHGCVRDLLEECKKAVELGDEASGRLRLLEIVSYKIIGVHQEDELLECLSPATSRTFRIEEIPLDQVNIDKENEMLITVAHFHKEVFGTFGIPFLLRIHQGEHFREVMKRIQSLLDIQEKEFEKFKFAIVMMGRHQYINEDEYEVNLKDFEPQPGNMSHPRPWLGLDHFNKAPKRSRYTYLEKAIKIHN
UniProt P10361: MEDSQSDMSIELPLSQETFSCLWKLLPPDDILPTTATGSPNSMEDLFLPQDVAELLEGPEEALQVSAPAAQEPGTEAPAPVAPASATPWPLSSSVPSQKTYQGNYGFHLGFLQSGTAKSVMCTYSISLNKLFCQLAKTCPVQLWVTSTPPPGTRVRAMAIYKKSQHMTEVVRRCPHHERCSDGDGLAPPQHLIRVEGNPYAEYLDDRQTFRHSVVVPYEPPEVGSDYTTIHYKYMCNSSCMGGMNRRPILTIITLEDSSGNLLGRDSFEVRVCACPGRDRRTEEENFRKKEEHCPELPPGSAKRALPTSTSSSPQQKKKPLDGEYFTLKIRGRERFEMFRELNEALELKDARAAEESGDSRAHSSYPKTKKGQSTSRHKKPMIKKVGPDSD

Target: ubiquitin-specific protease 7 (rat (endogenous in H9C2)) (UniProt Q4VSI4)
Assay: co-IP; anti-USP7 added to H9C2 cell protein extracts, protein A/G magnetic beads overnight at 4°C, SDS-PAGE and immunoblotting

binding: binds
Substance: p53 (from UniProt P10361 1-391)
